# Laboratory results: PubChem BioAssay AID1224829 (NIAID, 2016)
# Test: 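Follow-up of TLR4-NF-kappaB regulators using six separate siRNAs for each gene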 (follow-up of hits)
# System: mouse RAW264.7 G9 macrophage reporter cells
# Reagent: single siRNA against mouse genes, 100 nM
# Duration: 2 days of siRNA knock-down, then 40 min of LPS before fixing
# Challenge: LPS (Salmonella minnesota R595) at 10 ng/ml
# Detection: 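High-content images after 40 min LPS exposure; GFP-p65 nucleus to surrounding ring signal ratio, normalised to plate median and non-targeting control wells, expressed as z-score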
# Scale: p65 translocation z-score and gene median z-score, per vendor: higher = more nuclear NF-kappaB p65 after LPS
# Active means: 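An siRNA is called active when the mean z-score of its two replicates is above 2 or below -2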
# Meaning of the calls: active = changed p65 translocation (either direction); inactive = no clear change
# The deposit covers about 3,800 reagents; below is a random part of them. 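Calls cover raised and lowered translocation; gene median uses one vendor's three siRNAs; qiagen siRNAs acted more weakly than ambion siRNAs.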 Unmarked entries are inactive. The numbers tell different reagents against one gene apart.
gene knocked down,siRNA no.,siRNA vendor or control pool,"p65 translocation z-score, replicate mean","p65 translocation z-score, replicate 1","p65 translocation z-score, replicate 2","gene median z-score, per vendor"
Nhlh1 (nescient helix loop helix 1),1,ambion single siRNA,0.193,0.193,,-1.63
Nhlh1 (nescient helix loop helix 1),2,ambion single siRNA,-0.347,0.938,-1.63,-1.63
Nhlh1 (nescient helix loop helix 1),3,ambion single siRNA,-2.5 (active),-2.87,-2.14,-1.63
Nhlh1 (nescient helix loop helix 1),4,qiagen single siRNA,2.98 (active),2.78,3.18,2.05
Nhlh1 (nescient helix loop helix 1),5,qiagen single siRNA,0.958,0.0945,1.82,2.05
Nhlh1 (nescient helix loop helix 1),6,qiagen single siRNA,0.718,-0.832,2.27,2.05
Camk1d (calcium/calmodulin-dependent protein kinase ID),1,ambion single siRNA,-1.61,-2.65,-0.557,-0.399
Camk1d (calcium/calmodulin-dependent protein kinase ID),2,ambion single siRNA,2.21 (active),-0.241,4.66,-0.399
Camk1d (calcium/calmodulin-dependent protein kinase ID),3,ambion single siRNA,-0.694,0.468,-1.86,-0.399
Gcm2 (glial cells missing homolog 2),1,ambion single siRNA,-7.61 (active),-9.11,-6.12,-2.45
Gcm2 (glial cells missing homolog 2),2,ambion single siRNA,-2.23 (active),-2.29,-2.17,-2.45
Gcm2 (glial cells missing homolog 2),3,ambion single siRNA,-1.97,-2.62,-1.31,-2.45
Gcm2 (glial cells missing homolog 2),4,qiagen single siRNA,3.47 (active),3.81,3.12,1.29
Gcm2 (glial cells missing homolog 2),5,qiagen single siRNA,1.29,0.832,1.75,1.29
Gcm2 (glial cells missing homolog 2),6,qiagen single siRNA,-1.7,-1.93,-1.47,1.29
Tcf20 (transcription factor 20),1,ambion single siRNA,-0.434,-0.148,-0.72,-1.47
Tcf20 (transcription factor 20),2,ambion single siRNA,-3.12 (active),-3.82,-2.42,-1.47
Tcf20 (transcription factor 20),3,ambion single siRNA,-1.47,-1.87,-1.06,-1.47
Tcf20 (transcription factor 20),4,qiagen single siRNA,-0.0501,-0.186,0.0856,0.935
Tcf20 (transcription factor 20),5,qiagen single siRNA,0.935,0.822,1.05,0.935
Tcf20 (transcription factor 20),6,qiagen single siRNA,1.23,1.14,1.32,0.935

Targets listed so far whose target name starts with C or c (3):
gene knocked down,siRNA no.,siRNA vendor or control pool,"p65 translocation z-score, replicate mean","p65 translocation z-score, replicate 1","p65 translocation z-score, replicate 2","gene median z-score, per vendor"
Camk1d (calcium/calmodulin-dependent protein kinase ID),1,ambion single siRNA,-1.61,-2.65,-0.557,-0.399
Camk1d (calcium/calmodulin-dependent protein kinase ID),2,ambion single siRNA,2.21 (active),-0.241,4.66,-0.399
Camk1d (calcium/calmodulin-dependent protein kinase ID),3,ambion single siRNA,-0.694,0.468,-1.86,-0.399
